# The other results are listed elsewhere or left out. Cut-off read from the data, not from the text of the source: active = 150% or more and inactive = the rest. Most values come without repeats; read them as rough.
# Tested on: Staphylococcus aureus JE2-lux inside RAW 264.7 macrophages
# Experiment: intracellular bacterial bioluminescence relative to DMSO vehicle; higher = higher intracellular bacterial metabolic activity
# Settings: 10 µM; treatment time 4 h; gentamicin 50 µg/ml
row,Compound,intracellular bacterial bioluminescence
1,Cc1ccc2c(c1)NC(SCC(=O)Nc1ccc(C)c(F)c1)=NS2(=O)=O,inactive: 105%
2,Cc1ccnc(SCc2cc(=O)c(OC(=O)c3ccc(Br)o3)co2)n1,inactive: 110%
3,Cn1c(=O)c2c(nc(CN3CCC(C(N)=O)CC3)n2Cc2ccccc2)n(C)c1=O,inactive: 96.6%
4,CC1=C(C(=O)Nc2ccc(Cl)cc2)C(c2ccco2)C(C#N)=C(SCc2ccccc2)N1 (stereo unspecified),inactive: 105%
5,CC(=O)c1cccc(N(C(=O)c2cnccn2)C(C(=O)NC2CCCC2)c2cccs2)c1 (stereo unspecified),inactive: 82.4%
6,C=CCN1C(=O)/C(=C/c2ccco2)S/C1=N/c1nccs1,inactive: 95.9%
7,CCOC(=O)N1CCN(C(=O)CCCn2c(=S)[nH]c3c([nH]c4ccc(OC)cc43)c2=O)CC1,inactive: 114%
8,O=c1[nH]c2cc3c(cc2c(=O)n1Cc1nc(-c2ccccc2Br)no1)OCO3,inactive: 51.9%
9,CC(C)c1csc(-c2csc(S(=O)(=O)NCc3ccc4c(c3)OCO4)c2)n1,inactive: 39.5%
10,Cc1nc(-c2csc(S(=O)(=O)NCc3ccccc3Cl)c2)sc1C,inactive: 89.6%
11,Cc1cc2oc(C(=O)NCc3ccncc3)c(C)c2cc1C,inactive: 43.9%
12,CSC1=C(C#N)C(c2ccco2)C(C(=O)Nc2ccccc2C)=C(C)N1 (stereo unspecified),inactive: 95.3%
13,NC(=O)c1ccc(NC(=O)c2cn(Cc3cccc(F)c3)nc2OCc2cccc(F)c2)cc1,inactive: 92.4%
14,Cc1ccc(Cn2nnc3c(SCC(=O)NCc4ccc5c(c4)OCO5)ncnc32)cc1,inactive: 88.1%
15,Nc1c(-c2nc(-c3ccncc3)no2)nnn1-c1ccccc1Cl,inactive: 80.1%
16,O=C(CCn1c(=O)sc2ccccc21)Nc1ccccc1F,inactive: 88.6%
17,COc1cccc(-c2nnc(SCC(=O)Nc3ccc(C(C)=O)cc3)n2-n2cccc2)c1,inactive: 73.6%
18,Cc1n[nH]c(=O)nc1N/N=C/c1ccc(N(C)C)cc1,inactive: 105%
19,O=C(Nc1ccccc1-n1cccc1)c1cnccn1,inactive: 104%
20,COCCn1c(SCC(=O)Nc2cccc([N+](=O)[O-])c2)nc2c(c1=O)SCC2,inactive: 51.3%
21,O=C(CS(=O)(=O)c1c[nH]c2ccccc12)N1CCc2ccccc21,inactive: 89.2%
22,CCc1cccc2sc(N(Cc3ccccn3)C(=O)c3ccc(C#N)cc3)nc12,inactive: 111%
23,COc1ccc(C(=O)Nc2ccc3nc[nH]c3c2)cc1OC,inactive: 78.3%

row,Compound,intracellular bacterial bioluminescence
1,O=C(Nc1ccon1)c1cccn(OCc2ccccc2F)c1=O,inactive: 65.5%
2,CCS(=O)(=O)c1ccc(C(=O)/N=c2/sc3cccc(Cl)c3n2C)cc1,inactive: 85.1%
3,Cc1ccc(C)c2[nH]c(=O)c(CCNC(=O)COc3ccc(Cl)cc3Cl)cc12,inactive: 69.6%
4,O=C1COc2ccc(S(=O)(=O)Nc3cccc(C(=O)N4CCOCC4)c3)cc2N1,inactive: 96.3%
5,Cc1csc2nc(O)c(C(=O)NCc3ccccn3)c(=O)n12,inactive: 115%
6,Cc1sc(NC(=O)c2ccco2)nc1-c1ccc2c(c1)CCN2C(=O)C1CC1,inactive: 50.9%
7,O=C(CC1CCN(C(=O)c2cc3cc(Cl)ccc3[nH]2)CC1)NCc1ccccc1Cl,inactive: 122%
8,COc1ccc(Cn2c(=O)c3cccnc3n(-c3ccccc3)c2=O)cc1,inactive: 80%
9,O=C(CSc1nc(O)c2nc[nH]c2n1)N1CCN(c2ccccc2F)CC1,inactive: 122%
10,COc1cccc(NC(=O)CSc2ncnc3c2sc2nc4ccccc4cc23)c1,inactive: 102%
11,CC(NC(=O)Cc1csc2nc(-c3ccc(F)cc3)cn12)c1ccccc1 (stereo unspecified),inactive: 88.2%
12,O=C(NCc1ccco1)c1cnc2n(c1=O)CCS2,inactive: 89.3%
13,CCOC(=O)c1sc(NC(=O)CSC2=NN3CCCC(=O)N=C3S2)c(C(=O)OCC)c1C,inactive: 13.2%
14,COc1ccc2nc3sc(C(=O)Nc4nc(C)c(C)s4)c(N)c3cc2c1,inactive: 71.4%
15,COc1c(Br)ccc2c1sc1ncnc(OC)c12,inactive: 73.3%
16,CCS(=O)(=O)c1cccc(C(=O)Nc2nc3c(s2)COc2ccccc2-3)c1,inactive: 120%
17,COC(=O)c1ccc2nc(NC(=O)c3ccc(C)cc3C)sc2c1,inactive: 96.2%
18,C/C(=N/NC(=O)CSc1nc2ccccc2[nH]1)c1cccs1,inactive: 98.5%
19,CC(=O)Nc1ccc(Nc2nc(-c3ccccc3)c3cc(C)ccc3n2)cc1,inactive: 74.6%
20,CN1C(=O)c2cccc(NC(=O)c3cc(=O)c4ccccc4o3)c2C1=O,inactive: 118%
21,COc1cccc(/C=N/NC(=O)c2n[nH]c3c2CCc2ccccc2-3)c1,inactive: 98.1%
22,CCCc1cc(=O)[nH]c(SCC(=O)Nc2cc(C)on2)n1,inactive: 133%
23,CSc1nc2ccc3nc(Nc4nc5cc6c(cc5s4)OCO6)sc3c2s1,inactive: 124%

row,Compound,intracellular bacterial bioluminescence
1,Cc1ccc(N2C(=O)CC(Sc3ccccc3C(=O)O)C2=O)c(Br)c1 (stereo unspecified),inactive: 92.1%
2,COc1ccc2o/c(=N\c3cccc(C#N)c3)c(C(=O)NC(C)=O)cc2c1,inactive: 102%
3,CC(C)n1c(CN2CCN(c3ccc(F)cc3)CC2)nc2c1c(=O)n(C)c(=O)n2C,inactive: 125%
4,COc1ccccc1Nc1nc(NCc2ccco2)c2ccccc2n1,inactive: 86.2%
5,O=C(NCc1ccccc1)C(c1ccco1)N(Cc1ccc(F)cc1)C(=O)c1ccccn1 (stereo unspecified),inactive: 83.4%
6,COc1ccc(OC)c(-n2c(C)cn3c4c(=O)[nH]c(=O)n(C)c4nc23)c1,inactive: 122%
7,CCOC(=O)c1ccc(NC(=O)CSc2nccn2-c2cccc(C)c2)cc1,inactive: 67%
8,Cc1cc2ccccc2n2c(=O)n(CCNC(=O)CN3C(=O)CCC3=O)nc12,inactive: 98.6%
9,COc1ccc([N+](=O)[O-])cc1NC(=O)CCS(=O)(=O)c1ccc(F)cc1,active: 156%
10,O=C1C=C(Nc2ccc(Cl)cc2)C(=O)N1c1cccc(C(F)(F)F)c1,inactive: 89.6%
11,CCN(CC)CCNC(=O)c1cc2c(=O)n3ccccc3nc2s1,inactive: 83.9%
12,Cc1ccc(-n2ccnc2SCc2nc(-c3ccc(Cl)cc3)no2)cc1,inactive: 49.8%
13,COc1ccc(C(=O)NCc2ccc3c4c(cccc24)C(=O)N3)cc1OC,inactive: 104%
14,COc1cccc2sc(NC(=O)c3coc4ccccc4c3=O)nc12,inactive: 45.9%
15,O=C(CCCS(=O)(=O)c1ccccc1)Nc1nc2ccc([N+](=O)[O-])cc2s1,inactive: 122%
16,Cc1ccc2cc3c(nc2c1)sc1c(SCC(=O)NCc2ccccc2)ncnc13,inactive: 107%
17,Cn1c(SCC(=O)NCCCc2ccccc2)nc2c(-c3ccccc3)csc2c1=O,inactive: 102%
18,CC1(C(=O)Nc2ncc(Cc3cccc(C(F)(F)F)c3)s2)Cc2ccccc2C(=O)O1 (stereo unspecified),inactive: 72.6%
19,CCc1ccccc1NC(=O)Cc1c(C)nn(-c2nc(-c3ccc(C)cc3)cs2)c1O,inactive: 99.4%
20,Cc1ccc(S(=O)(=O)Nc2ccccc2C(=O)Nc2sc3c(c2C(N)=O)CC(C)CC3)cc1 (stereo unspecified),inactive: 100%
21,CC(=O)Nc1ccc2nc(NC(=O)C(C)NS(=O)(=O)c3ccc(C)cc3)sc2c1 (stereo unspecified),active: 150%
22,COc1cccc2cc(C(=O)NCc3ccc4c(c3)OCO4)c(=O)oc12,inactive: 115%
23,CCOc1ccccc1-c1cc(C(=O)Nc2ccc3c(c2)nc(CC)n3C)[nH]n1,inactive: 91.6%

row,Compound,intracellular bacterial bioluminescence
1,Cc1oc(-c2ccno2)cc1S(=O)(=O)N1c2ccccc2CC1C (stereo unspecified),inactive: 95.4%
2,O=C(CCn1c(=S)[nH]c2ccccc2c1=O)N1CCOCC1,inactive: 59%
3,Cc1ccc(-n2ccnc(NCCC(C)C)c2=O)cc1Cl,inactive: 60.1%
4,CCOc1ccc(NC(=O)Cn2nnc(C(=O)Nc3ccccc3F)c2N)cc1,inactive: 82.9%
5,COc1cccc(NC(=S)Nc2c(C)n(C)n(-c3ccccc3)c2=O)c1,inactive: 104%
6,Nn1c(SCc2ccccc2)nnc1-c1ccco1,inactive: 64.8%
7,Cc1nc2cc(-c3noc(CNS(=O)(=O)c4ccccc4)n3)ccc2n(C2CCCC2)c1=O,inactive: 97.2%
8,CCN1CCC(CCc2ccc(NC(=O)c3cccc4c3C(=O)N(C)C4)cc2)C(C)C1 (stereo unspecified),inactive: 129%
9,CC1=NN(Cc2ccc(C)cc2)c2nc3c(c(=O)n(C)c(=O)n3C)n2C1,inactive: 103%
10,COc1ccc(CCNC(=O)C2CCCN2C(=O)Nc2ccc(F)cc2)cc1OC (stereo unspecified),inactive: 113%
11,CCOC(=O)c1sc(Nc2nc3ccc(F)cc3s2)nc1C,inactive: 108%
12,Cc1nc(N2CCN(C(=O)c3ccco3)CC2)c2nnn(Cc3ccccc3)c2n1,inactive: 38%
13,COc1cc(Nc2ncc3c(n2)CCN(S(=O)(=O)c2cccc4nsnc24)C3)cc(OC)c1,inactive: 47.4%
14,Cc1cc(NC(=O)c2c3c(nc4ccccc24)C(=O)N(C2CCCCC2)C3)no1,inactive: 110%
15,O=C1NC(c2ccc(Cl)cc2)c2c1oc1ccccc1c2=O (stereo unspecified),inactive: 92.4%
16,CC(=O)Cc1nsc(NC(=O)c2ccoc2COc2ccc(C)cc2)n1,inactive: 113%
17,C=CCn1c(=O)c2c3c(sc2n2c(Nc4ccccc4)nnc12)CCCC3,inactive: 109%
18,C=CCOc1ccccc1/C=C1/SC(N2CCN(C)CC2)=NC1=O,inactive: 85.2%
19,O=C(NCc1ccc2c(c1)OCO2)C(=O)NCC(c1ccco1)N1CCN(c2ccccc2)CC1 (stereo unspecified),inactive: 76.4%
20,CC(=O)NC1(c2ccccc2F)CCN(Cc2cc3ccccc3nc2N(C)C)CC1,inactive: 107%
21,O=C(Nc1cccc(NC(=O)c2ccccn2)c1)c1ccc2nccnc2c1,inactive: 104%
22,O=C(Nc1ccc2ncsc2c1)c1cc2ccccc2oc1=O,inactive: 111%

# Source: the supplement of paper PMC12578635
